No constants are given. Whether binding was seen depends on the method and setting. In cells and extracts the contact can be indirect. A result given as binding can be weak or reduced; the word gives no strength.
Molecular target: RFP-RNF26 ΔRING
Test: co-IP

binding: binds
B1: endogenous UBE2J1 (enzyme, UniProt Q9Y385 1-318)
chain: METRYNLKSPAVKRLMKEAAELKDPTDHYHAQPLEDNLFEWHFTVRGPPDSDFDGGVYHGRIVLPPEYPMKPPSIILLTANGRFEVGKKICLSISGHHPETWQPSWSIRTALLAIIGFMPTKGEGAIGSLDYTPEERRALAKKSQDFCCEGCGSAMKDVLLPLKSGSDSSQADQEAKELARQISFKAEVNSSGKTISESDLNHSFSLTDLQDDIPTTFQGATASTSYGLQNSSAASFHQPTQPVAKNTSMSPRQRRAQQQSQRRLSTSPDVIQGHQPRDNHTDHGGSAVLIVILTLALAALIFRRIYLANEYIFDFEL

From paper doi:10.1101/2020.10.02.323576
